The structures appear in SMILES notation.

Among the data in ChEMBL document CHEMBL4483862, “Open-source discovery of chemical leads for next-generation chemoprotective antimalarials” (2018) are IC90 values, retold here.

The subject of this experiment is Plasmodium berghei. Briefly: Luciferase/luciferin-expressing antifolate-resistant parasites were used to infect a culture of HepG2 cells that were pre-incubated with compounds. Infected hepatocytes emit light due to the luciferase reaction. Assay results are presented as the percent inhibition of light emission compared to control. […]. Particulars: sporozoite, read-out: LUCIFERASE INFECTION ASSAY - IC90. Format: functional.

Regarding `CCCCc1oc2ccccc2c1C(=O)c1cc(I)c(OCCN(CC)CC)c(I)c1` [AMIODARONE], the concentration for an effect of 90% (IC90) was more than 4.84 µM.
